Reference: patent publication US6270799A, “Medicament formulation with a controlled release of an active agent” (Bayer Aktiengesellscahft, priority 1997, dated 2001)
Where a name gives a salt, the structure may show the parent alone. Read-outs that look alike come from different tables or passages of the source.

Experiments:
[1] = animal experiments
[2] = humans; data found by Staib and Fuhr; cited from earlier work

## O=C(O)c1cn(C2CC2)c2cc(N3CCNCC3)c(F)cc2c1=O [cyprofloxacin-hydrochloride, ciprofloxacin-hydrochloride]
[1]
  absorption from the colon: only absorbed to a very small degree from the colon
[2]
  absorption from the colon: only absorbed to a very small degree from the colon
